The results in this text go back to publication PMC7954794, “Protein context shapes the specificity of SH3 domain-mediated interactions in vivo” (Nature Communications, 2021).

No dose or concentration is given here for some results.

The labels stand for the following.
B1: YLR337C (protein, UniProt P37370 1-817, looked up)
Verprolin: MAGAPAPPPPPPPPALGGSAPKPAKSVMQGRDALLGDIRKGMKLKKAETNDRSAPIVGGGVVSSASGSSGTVSSKGPSMSAPPIPGMGAPQLGDILAGGIPKLKHINNNASTKPSPSASAPPIPGAVPSVAAPPIPNAPLSPAPAVPSIPSSSAPPIPDIPSSAAPPIPIVPSSPAPPLPLSGASAPKVPQNRPHMPSVRPAHRSHQRKSSNISLPSVSAPPLPSASLPTHVSNPPQAPPPPPTPTIGLDSKNIKPTDNAVSPPSSEVPAGGLPFLAEINARRSERGAVEGVSSTKIQTENHKSPSQPPLPSSAPPIPTSHAPPLPPTAPPPPSLPNVTSAPKKATSAPAPPPPPLPAAMSSASTNSVKATPVPPTLAPPLPNTTSVPPNKASSMPAPPPPPPPPPGAFSTSSALSASSIPLAPLPPPPPPSVATSVPSAPPPPPTLTTNKPSASSKQSKISSSSSSSAVTPGGPLPFLAEIQKKRDDRFVVGGDTGYTTQDKQEDVIGSSKDDNVRPSPISPSINPPKQSSQNGMSFLDEIESKLHKQTSSNAFNAPPPHTDAMAPPLPPSAPPPPITSLPTPTASGDDHTNDKSETVLGMKKAKAPALPGHVPPPPVPPVLSDDSKNNVPAASLLHDVLPSSNLEKPPSPPVAAAPPLPTFSAPSLPQQSVSTSIPSPPPVAPTLSVRTETESISKNPTKSPPPPPSPSTMDTGTSNSPSKNLKQRLFSTGGSTLQHKHNTHTNQPDVDVGRYTIGGSNSIVGAKSGNERIVIDDSRFKWTNVSQMPKPRPFQNKTKLYPSGKGSSVPLDLTLFT
B2: YKR048C (protein, UniProt P25293 1-417, looked up)
Nucleosome assembly protein: MSDPIRTKPKSSMQIDNAPTPHNTPASVLNPSYLKNGNPVRAQAQEQDDKIGTINEEDILANQPLLLQSIQDRLGSLVGQDSGYVGGLPKNVKEKLLSLKTLQSELFEVEKEFQVEMFELENKFLQKYKPIWEQRSRIISGQEQPKPEQIAKGQEIVESLNETELLVDEEEKAQNDSEEEQVKGIPSFWLTALENLPIVCDTITDRDAEVLEYLQDIGLEYLTDGRPGFKLLFRFDSSANPFFTNDILCKTYFYQKELGYSGDFIYDHAEGCEISWKDNAHNVTVDLEMRKQRNKTTKQVRTIEKITPIESFFNFFDPPKIQNEDQDEELEEDLEERLALDYSIGEQLKDKLIPRAVDWFTGAALEFEFEEDEEEADEDEDEEEDDDHGLEDDDGESAEEQDDFAGRPEQAPECKQS
B3: YIR006C (protein, UniProt P32521 1-1480, looked up)
Actin cytoskeleton-regulatory …: MYNPYQQQGMGYQQQQQQQQQQPNGFYPQQQQGQSSNQPQGQPQPQQQMAFNQPQATGIGGMPQSFGNSFSSMPQQPQTGYNNNGNNGSVYGNGNFGQQPQQQQQQAKPQHTGYVPNSSMPMMNTTGTMPPPNPAQQPQLQSIQPQGTGYYQAANTANVHSVQPLQSQGTGYYVSTPNLISSNQTQQPLQAQGTGYYQSQPQQVPPPQQAQSLQPLKPQQTGFYLQPQNQAPLEPLKPTATGFVNSFANNGLNNDIKIPAIRLSFITAQDQAKFETLFRSIVTNGSNTVSGANCRKILMRSGLPPSQLARIWTLCDTSKAGELLFPEFALAMHLINDVLQGDTIPYELDSKTKNEVSSFIDAINLSIANQDSSANDAPKTPFDEFITAGVQNLQPQPTGYMPQTSFGIPLQSQITGGGVASALNPQSTGFMAPTTFNMSMNTGTPGLNPQITGGAPASMQPNITGNALQPQTTGMMPQTTGMMPQTTGMMPQTSFGVNLGPQLTGGALQSQYTGGYGSVMPQQSGPASMPNLSFNQQGLQSQLTGLQPQPTGFLPPSNFSATMPLTAQKTGFGNNEIYTKSNFNNNLIDNSSQDKISTEEKSLFYKIFETFDTQNKGLLDSPTAVEIFRKSGLNRADLEQIWNLCDINNTGQLNKQEFALGMHLVYGKLNGKPIPNVLPSSLIPSSTKLLDNLKNQLKTEPTTTKEKPSFGKIDALSYKNNDDDVLPNYRNRRKVYSAKNEEQSSFSSPSAKSVNHSSSTLQTDDISVDKTVEKKTAKPKYAGFSREINLKNIASLENEIKNISNPENCYDSSIPSDLTSRFDAIIAKLPNLFNEISTIDNEITNAKIQLYRKKNPSSIIGSGPNGEITENDRKKAKSRALLRARMSALTGKSTESEDSLSMEDEQQSAEIKRIQQENGKNQEIIKDIRSSISDISASLKSTMTGSNMISNQEFERWEFGIGLEDGVREFLDDLKSNSNKSVTESSPFVPSSTPTPVDDRSSSPSYSQFKTAEERAAYLKEQAKKRMKEKLAKFDKNRRNVTQSSRSISSENSREQPQQIAGSSNLVEPRATPFQEEKYVEVAQPTQPVQSTQPVQPTQPVQPTQPVQPTQPVQPTQPVQPTQPVQNVYNAKQESDDEDEDDEEKRLQEELKRLKLKKKADKEKRLAALRKQIEDAQNESDEEETNGKDNFGGHVNVPQAAPVAPSAAFSQNSTNAPRSVHAAVTPAAGKNSTGLPSTTMGHNPYFKDASASSTSTFDARAAEMQRRIQRGLDEDEDDGWSDEDESNNRVAVDNKVEEAKIGHPDHARAPPVTAAPLPSVTPVPPAVPVPQANTSNEKSSPIPIAPIPPSVTQEPPVPLAPPLPAVDGFQEPPIPSAPAIATAVQKSGSSTPALAGGVLPPPPPLPTQQASTSEPIIAHVDNYNGAEKGTGAYGSDSDDDVLSIPESVGTDEEEEGAQPVSTAGIPSIPPAGIPPPPPLP
B4: YBL085W (protein, UniProt P38041 1-980, looked up)
BEM1-interacting protein 1: MSLEGNTLGKGAKSFPLYIAVNQYSKRMEDELNMKPGDKIKVITDDGEYNDGWYYGRNLRTKEEGLYPAVFTKRIAIEKPENLHKSPTQESGNSGVKYGNLNDSASNIGKVSSHQQENRYTSLKSTMSDIDKALEELRSGSVEQEVSKSPTRVPEVSTPQLQDEQTLIQEKTRNEENTTHDSLFSSTADLNLSSESLKNISKSNISTKSLEPSSESVRQLDLKMAKSWSPEEVTDYFSLVGFDQSTCNKFKEHQVSGKILLELELEHLKELEINSFGIRFQIFKEIRNIKSAIDSSSNKLDADYSTFAFENQAAQLMPAATVNRDEIQQQISSKCNKLSSESSDRKSSSVTTELQRPSSVVVNPNFKLHDPAEQILDMTEVPNLFADKDIFESPGRAPKPPSYPSPVQPPQSPSFNNRYTNNNARFPPQTTYPPKNKNPTVYSNGLIPNSSTSSDNSTGKFKFPAMNGHDSNSRKTTLTSATIPSINTVNTDESLPAISNISSNATSHHPNRNSVVYNNHKRTESGSSFVDLFNRISMLSPVKSSFDEEETKQPSKASRAVFDSARRKSSYGHSRDASLSEMKKHRRNSSILSFFSSKSQSNPTSPTKQTFTIDPAKMTSHSRSQSNSYSHARSQSYSHSRKHSLVTSPLKTSLSPINSKSNIALAHSETPTSSNNKEAVSQPSEGKHKHKHKHKSKHKHKNSSSKDGSSEEKSKKKLFSSTKESFVGSKEFKRSPSELTQKSTKSILPRSNAKKQQTSAFTEGIRSITAKESMQTADCSGWMSKKGTGAMGTWKQRFFTLHGTRLSYFTNTNDEKERGLIDITAHRVLPASDDDRLISLYAASLGKGKYCFKLVPPQPGSKKGLTFTEPRVHYFAVENKSEMKAWLSAIIKATIDIDTSVPVISSYATPTIPLSKAQTLLEEARLQTQLRDAEEEEGRDQFGWDDTQNKRNSNYPIEQDQFETSDYLESSAFEYPGGRL
B5: YAL041W (protein, UniProt P11433 1-854, looked up)
Cell division control protein …: MAIQTRFASGTSLSDLKPKPSATSISIPMQNVMNKPVTEQDSLFHICANIRKRLEVLPQLKPFLQLAYQSSEVLSERQSLLLSQKQHQELLKSNGANRDSSDLAPTLRSSSISTATSLMSMEGISYTNSNPSATPNMEDTLLTFSMGILPITMDCDPVTQLSQLFQQGAPLCILFNSVKPQFKLPVIASDDLKVCKKSIYDFILGCKKHFAFNDEELFTISDVFANSTSQLVKVLEVVETLMNSSPTIFPSKSKTQQIMNAENQHRHQPQQSSKKHNEYVKIIKEFVATERKYVHDLEILDKYRQQLLDSNLITSEELYMLFPNLGDAIDFQRRFLISLEINALVEPSKQRIGALFMHSKHFFKLYEPWSIGQNAAIEFLSSTLHKMRVDESQRFIINNKLELQSFLYKPVQRLCRYPLLVKELLAESSDDNNTKELEAALDISKNIARSINENQRRTENHQVVKKLYGRVVNWKGYRISKFGELLYFDKVFISTTNSSSEPEREFEVYLFEKIIILFSEVVTKKSASSLILKKKSSTSASISASNITDNNGSPHHSYHKRHSNSSSSNNIHLSSSSAAAIIHSSTNSSDNNSNNSSSSSLFKLSANEPKLDLRGRIMIMNLNQIIPQNNRSLNITWESIKEQGNFLLKFKNEETRDNWSSCLQQLIHDLKNEQFKARHHSSTSTTSSTAKSSSMMSPTTTMNTPNHHNSRQTHDSMASFSSSHMKRVSDVLPKRRTTSSSFESEIKSISENFKNSIPESSILFRISYNNNSNNTSSSEIFTLLVEKVWNFDDLIMAINSKISNTHNNNISPITKIKYQDEDGDFVVLGSDEDWNVAKEMLAENNEKFLNIRLY
B6: YDR166C (protein, UniProt P89102 1-971, looked up)
Exocyst complex component SEC5: MDRFQIGDEQLLRFYQLKTINPTHSWAQDSSKLNNEEATSNELGVETSFDILKDFKYGNQISIDKESRAYLNDESLSYIRDPLNGQEMSKELQHLPNDSMRLNYLVNSKQFNVKAFLRDMHKQDSFNDLNNSLDRLDSDIQDQSIHLKQLVGKNFTKYVKIKNKLDQIYKEFDEKTNEKNQCDSPKENQINVESLNKKVDEVIRTTTFKLKPLMDNYQKILNYQATKKFIELNKFYFNLPKSLKRCLTNNDFNEFIIEYSKGLTLRRRFNQSSDASQSLVIKRIWTQIENLLVTYKDLIWNSLINSNFNIDQPQETILSLFSKLLNLENFINNNQRESESGNKNTTSSSNENPILRWMSIKMNGFQNELNELSGHMISKIIHSQRLILQNNTNQDKSQGCVELSYYLKINQLFQIISDTGKDSEGLKSTVEPNKVNTISGTSYLNLNCQPSSQGLTDSPTIIEMWLLILKYINDLWKICDQFIEFWEHIEKFLDGTYQNSIINEKRKENILIGDSNIIESYQKSLILKEEQINEVRLKGEEFITSVSQNLISFFTSSQSSLPSSLKDSTGDITRSNKDSGSPLDYGFIPPNCNGLSCLRYLPKIVEPILKFSTELAQLNITTNGITICRNTLSTIINRCVGAISSTKLRDISNFYQLENWQVYETVTFSSKSQDSSKNLTFEYGVTQFPEIVTSFQEVSIKTTRDLLFAYEKLPIINGISVVSYPSKQLLTGIEIQQIISMEAVLEAILKNAAKDKDNPRNSHTILTLTNLQYFRECAFPNILQYFDDAFEWNLASKNLELFSLLSKMESSIFGNYLSDLKINLRDTLEEKFHEINWPMYTSNSFRVGDYIIEALMILIVVHSECFRIGPQLIHKILIETQIFIARYLFEAFKPYVGNLSNDGSLQIIVDLEFFQKVMGPLLEKDTEATLRACLQNCFQNDTNRLQKCINEINPIVSANLKRTAIQFAAFS
B7: YER114C (protein)
chain: PMYIAINEYFKRMEDELDMKPGDKIKVITDDEEYKDGWYFGRNLRTNEEGLYPVVFTQKIT

The subject of one data set is BBC1. The experiment in a line: DHFR-PCA on solid medium, bait BBC1 (Fig. 1B). Format: cell-based, Saccharomyces cerevisiae. Further details: key: 0: SH3-independent; 1: SH3-dependent PPIs; 2: SH3-inhibited PPIs. To be noted: bait BBC1, label = prey. The text has this: (§1) Supplement 41467_2021_21873_MOESM8_ESM.xlsx, sheet "Fig1B" | column: medsize; medrep; Ratio; Score
B1 returned a Score of 1.

In turn, B2 showed a Score of 1.

In turn, B3 had a Score of 1.

A further data set deals with BOI1. The experiment in a line: DHFR-PCA on solid medium, bait BOI1 (Fig. 1B). Format: cell-based, Saccharomyces cerevisiae. Further details: key: 0: SH3-independent; 1: SH3-dependent PPIs; 2: SH3-inhibited PPIs. The conditions noted are these: bait BOI1, label = prey.
Description: as §1
Molecule B4 showed a Score of 0. B5 registered a Score of 0.

Another data set relates to BOI2. Description: DHFR-PCA on solid medium, bait BOI2 (Fig. 1B). The format is cell-based, Saccharomyces cerevisiae. Further details: key: 0: SH3-independent; 1: SH3-dependent PPIs; 2: SH3-inhibited PPIs. To be noted: bait BOI2, label = prey.
Description: as §1
Molecule B4 registered a Score of 0. B5 yielded a Score of 0. B6 displayed a Score of 1. B2 gave a Score of 2.

Regarding B7, the Score was found to be 0.
